Assay results published in patent publication US20070207946A1, “Dipeptidyl peptidase IV inhibitors and their uses for lowering blood pressure levels” (priority 2001, published 2007).
For part of these data: At least one peptide structure holds a part that was inferred or is arguable (an end, a ring closure or a residue). For part of these data: For at least one compound, name, drawing or mass did not settle the structure. Square brackets hold non-standard residues; d marks the D form. Peptide text beside a SMILES is read from it. ξ: configuration not given here. ξHyp = O=C(O)C1CC(O)CN1

Chains of the proteins cited; added tags and fusions are not shown. Lines headed by an entry give the natural chain unless they say otherwise; changes in a name come on top.
UniProt P22411: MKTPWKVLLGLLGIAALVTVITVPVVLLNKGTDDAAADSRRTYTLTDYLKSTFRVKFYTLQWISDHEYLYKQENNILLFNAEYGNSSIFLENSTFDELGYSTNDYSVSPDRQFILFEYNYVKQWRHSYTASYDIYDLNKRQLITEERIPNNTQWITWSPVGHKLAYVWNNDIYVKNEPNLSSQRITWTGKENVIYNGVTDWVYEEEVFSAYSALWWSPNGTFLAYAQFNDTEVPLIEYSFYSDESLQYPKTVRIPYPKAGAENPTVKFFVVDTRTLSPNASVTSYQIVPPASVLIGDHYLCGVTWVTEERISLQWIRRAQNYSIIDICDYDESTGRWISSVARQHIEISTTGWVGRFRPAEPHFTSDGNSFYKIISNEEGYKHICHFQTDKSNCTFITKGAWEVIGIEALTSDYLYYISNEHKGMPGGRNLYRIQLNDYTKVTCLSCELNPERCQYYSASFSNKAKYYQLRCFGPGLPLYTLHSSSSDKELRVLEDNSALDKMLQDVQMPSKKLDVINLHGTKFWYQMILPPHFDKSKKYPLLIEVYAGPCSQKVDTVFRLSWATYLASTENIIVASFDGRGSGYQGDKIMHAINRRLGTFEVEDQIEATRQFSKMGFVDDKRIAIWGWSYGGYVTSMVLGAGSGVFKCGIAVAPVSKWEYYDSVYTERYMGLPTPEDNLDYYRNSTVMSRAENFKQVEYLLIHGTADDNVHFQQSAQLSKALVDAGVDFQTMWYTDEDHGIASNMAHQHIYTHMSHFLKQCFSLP

Key:
[1] = system: Dipeptidyl Peptidase I (DP I, Cathepsin C); test: Cross reacting enzymes - dipeptidyl peptidase I; type: biochemical; details: concentration range 1*10^−5 M-1*10^−7M; MES buffer pH5.6
Description: DP I or cathepsin C is a lysosomal cysteine protease which cleaves off dipeptides from the N-terminus of their substrates (Gutman, H. R. & Fruton, J. S., 1948, J. Biol: Chem., 174, 851-858). It is classified as a cysteine protease. The enzyme used was purchased from Qiagen (Qiagen GmbH, Hilden, Germany). In order to get a fully active enzyme, the enzyme was diluted 1000 fold in MES buffer pH5.6 (40 mM MES, 4 mM DTT, 4 mM KCl, 2 mM EDTA, 0.015% Brij) and pre-incubated for 30 min at 30° C.
50 μl glutaminyl pyrrolidine or glutaminyl thiazolidine in a concentration range of 1*10^−5 M-1*10^−7M were admixed with 110 μl buffer-enzyme-mixture. The assay mixture was pre-incubated at 30° C. for 15 min. After pre-incubation, 100 μl histidylseryl-[…]-nitroaniline (2*10^−5M) was added and measurement of yellow color development due to β-nitroaniline release was performed at 30° C. and […] for 10 min., using a plate reader (HTS7000 plus, Applied Biosystems, Weiterstadt, Germany).
The IC50-values were calculated using Graphit 4.0.15 (Erithacus Software, Ltd., UK).

[2] = system: diabetic Zucker rats; test: Dose escalation study in fatty Zucker rats, oral glucose tolerance test; type: in vivo, rat; details: 5 mg/kg, 15 mg/kg and 50 mg/kg b.w. oral, 2 g/kg glucose
Description: N=30 male Zucker rats (fa/fa), mean age 11 weeks (5-12 weeks), mean body weight 350 g (150-400 g), were purchased from Charles River (Sulzfeld, Germany).
After delivery they were kept for >12 weeks until nearly all fatty Zucker rats had the characteristics of manifest diabetes mellitus. A group of N=8 animals were recruited for testing three escalating doses of glutaminyl pyrrolidine vs. placebo (saline).
Placebo (1 ml saline, 0.154 mol/l) or escalating doses of glutaminyl pyrrolidine (5, 15 and 50 mg/kg b.w.) were administered to groups of N=8 fatty Zucker rats. 375 mg of glutaminyl pyrrolidine were dissolved in 1000 μl DMSO (E. Merck, Darmstadt; Germany [Dimethyl sulfoxide p.a.]). 10 ml saline were added and 1 ml aliquots, each containing 34.09 mg of glutaminyl pyrrolidine, were stored at −20° C. For preparation of the test substance, dose dependent aliquots were diluted in saline. […]
Glucose levels were measured using the glucose oxidase procedure (Super G Glucose analyzer; Dr. Müller Gerätebau, Freital, Germany).
Statistical evaluations and graphics were performed with PRISM® 3.02 (GraphPad Software, Inc.). All parameters were analysed in a descriptive manner including mean and SD. […]
Glucose levels were measured using the glucose oxidase procedure (Super G Glucose analyzer; Dr. Möller Gerätebau, Freital, Germany).

[3] = biological target: purified porcine DPIV (Sus scrofa, UniProt P22411); test: Determination of IC50 values (DPIV, Gly-Pro-pNA); type: biochemical; details: Gly-Pro-pNA 0.4 mM, HEPES pH7.6, 30° C.
Description: 100 μl inhibitor stock solution were mixed with 100 μl buffer (HEPES pH7.6) and 50 μl substrate (Gly-Pro-pNA, final concentration 0.4 mM) and preincubated at 30° C. Reaction was started by addition of 20 μl purified porcine DPIV. Formation of the product pNA was measured at 405 nm over 10 min using the HTS 7000Plus plate reader (Perkin Elmer) and slopes were calculated. The final inhibitor concentrations ranged between 1 mM and 30 nM. For calculation of IC50 GraFit 4.0.13 (Erithacus Software) was used.

SMILES | inhibition of DP I enzyme activity [1] | elevated blood glucose levels and glucose tolerance (OGTT) [2] | IC50 [3]
NC(=O)CCC(N)C(=O)N1CCSC1 (stereo not drawn) [Gln-Thia, glutaminyl thiazolidine] | No inhibition | dose dependent lowering | –
CC[C@H](C)[C@H](N)C(=O)N1CC(O)CC1C(=O)N[C@H](C(=O)O)[C@@H](C)CC (stereo partly drawn) [Ile-Hyp-Ile] (H-Ile-[ξHyp]-Ile-OH; N-terminus and C-terminus assumed) | – | – | 6 mM
